Source: article PMC2878639
These are yes or no findings as the source states them, for the method shown.

Biological target: HsdR subunit of the type I restriction-modification enzyme EcoR124I (UniProt P10486)
Assay: AUC; sedimentation velocity, HsdR at 4.5 μM in buffer A (10 mM Tris-HCl pH 8.0, 100 mM NaCl, 1 mM Na2EDTA), 10 °C, 40,000 rpm, absorbance at 280 nm, Sedfit c(s) and c(M); also with 100-fold excess of ATP (identical S value); both purified

B1: HsdR subunit of the type I restriction-modification enzyme EcoR124I (enzyme, UniProt P10486 1-1038)
chain: MTHQTHTIAESNNFIVLDKYIKAEPTGDSYQSESDLERELIQDLRNQGYEFISVKSQSAMLANVREQLQNLNGVVFNDSEWRRFTEQYLDNPSDGILDKTRKIHIDYICDFIFDDERLENIYLIDKKNLMRNKVQIIQQFEQAGSHANRYDVTILVNGLPLVQIELKKRGVAIREAFNQIHRYSKESFNSENSLFKYLQLFVISNGTDTRYFANTTKRDKNSFDFTMNWAKSDNTLIKDLKDFTATCFQKHTLLNVLVNYSVFDSSQTLLVMRPYQIAATERILWKIKSSFTAKNWSKPESGGYIWHTTGSGKTLTSFKAARLATELDFIDKVFFVVDRKDLDYQTMKEYQRFSPDSVNGSENTAGLKRNLDKDDNKIIVTTIQKLNNLMKAESDLPVYNQQVVFIFDECHRSQFGEAQKNLKKKFKRYYQFGFTGTPIFPENALGSETTASVFGRELHSYVITDAIRDEKVLKFKVDYNDVRPQFKSLETETDEKKLSAAENQQAFLHPMRIQEITQYILNNFRQKTHRTFPGSKGFNAMLAVSSVDAAKAYYATFKRLQEEAANKSATYKPLRIATIFSFAANEEQNAIGEISDETFDTSAMDSSAKEFLDAAIREYNSHFKTNFSTDSNGFQNYYRDLAQRVKNQDIDLLIVVGMFLTGFDAPTLNTLFVDKNLRYHGLMQAFSRTNRIYDATKTFGNIVTFRDLERSTIDAITLFGDKNTKNVVLEKSYTEYMEGFTDAATGEAKRGFMTVVSELEQRFPDPTSIESEKEKKDFVKLFGEYLRAENILQNYDEFATLKALQQIDLSDPVAVEKFKAEHYVDDEKFAELQTIRLPADRKIQDYRSAYNDIRDWQRREKEAEKKEKSTTDWDDVVFEVDLLKSQEINLDYILGLIFEHNRQNKGKGEMIEEVKRLIRSSLGNRAKEGLVVDFIQQTNLDDLPDKASIIDAFFTFAQREQQREAEALIKEENLNEDAAKRYIRTSLKREYATENGTELNETLPKLSPLNPQYKTKKQAVFQKIVSFIEKFKGVGGKI
  binding: no binding (tested: 4.5 μM)
